# Assay results reported in paper PMC4200255.
# The chains behind the UniProt entries cited, without tags or fusion partners.
# UniProt Q9UNE7: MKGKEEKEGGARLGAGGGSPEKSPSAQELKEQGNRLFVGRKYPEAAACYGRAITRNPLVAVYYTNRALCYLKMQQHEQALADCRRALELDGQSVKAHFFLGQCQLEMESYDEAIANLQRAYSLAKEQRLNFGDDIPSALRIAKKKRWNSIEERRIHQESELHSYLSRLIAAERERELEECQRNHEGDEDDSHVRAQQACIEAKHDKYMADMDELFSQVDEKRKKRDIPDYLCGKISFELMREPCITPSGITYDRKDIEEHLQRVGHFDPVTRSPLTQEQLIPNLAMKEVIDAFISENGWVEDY
# UniProt P11142: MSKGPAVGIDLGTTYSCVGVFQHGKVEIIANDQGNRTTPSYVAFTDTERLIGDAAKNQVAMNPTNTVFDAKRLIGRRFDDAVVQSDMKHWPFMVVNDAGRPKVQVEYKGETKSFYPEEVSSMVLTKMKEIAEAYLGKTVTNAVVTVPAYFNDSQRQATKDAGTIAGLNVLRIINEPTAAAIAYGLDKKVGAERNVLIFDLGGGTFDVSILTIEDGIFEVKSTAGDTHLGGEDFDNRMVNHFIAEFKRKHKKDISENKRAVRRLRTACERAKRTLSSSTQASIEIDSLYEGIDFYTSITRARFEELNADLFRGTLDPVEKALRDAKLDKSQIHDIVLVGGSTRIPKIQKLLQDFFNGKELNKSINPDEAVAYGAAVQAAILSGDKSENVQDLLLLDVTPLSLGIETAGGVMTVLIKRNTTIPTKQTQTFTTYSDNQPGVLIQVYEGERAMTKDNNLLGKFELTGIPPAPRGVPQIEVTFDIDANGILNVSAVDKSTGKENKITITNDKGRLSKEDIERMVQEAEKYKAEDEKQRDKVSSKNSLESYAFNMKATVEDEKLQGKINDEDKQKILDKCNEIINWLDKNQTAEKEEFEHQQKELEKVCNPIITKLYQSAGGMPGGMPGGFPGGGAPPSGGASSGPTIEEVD
# UniProt P08238: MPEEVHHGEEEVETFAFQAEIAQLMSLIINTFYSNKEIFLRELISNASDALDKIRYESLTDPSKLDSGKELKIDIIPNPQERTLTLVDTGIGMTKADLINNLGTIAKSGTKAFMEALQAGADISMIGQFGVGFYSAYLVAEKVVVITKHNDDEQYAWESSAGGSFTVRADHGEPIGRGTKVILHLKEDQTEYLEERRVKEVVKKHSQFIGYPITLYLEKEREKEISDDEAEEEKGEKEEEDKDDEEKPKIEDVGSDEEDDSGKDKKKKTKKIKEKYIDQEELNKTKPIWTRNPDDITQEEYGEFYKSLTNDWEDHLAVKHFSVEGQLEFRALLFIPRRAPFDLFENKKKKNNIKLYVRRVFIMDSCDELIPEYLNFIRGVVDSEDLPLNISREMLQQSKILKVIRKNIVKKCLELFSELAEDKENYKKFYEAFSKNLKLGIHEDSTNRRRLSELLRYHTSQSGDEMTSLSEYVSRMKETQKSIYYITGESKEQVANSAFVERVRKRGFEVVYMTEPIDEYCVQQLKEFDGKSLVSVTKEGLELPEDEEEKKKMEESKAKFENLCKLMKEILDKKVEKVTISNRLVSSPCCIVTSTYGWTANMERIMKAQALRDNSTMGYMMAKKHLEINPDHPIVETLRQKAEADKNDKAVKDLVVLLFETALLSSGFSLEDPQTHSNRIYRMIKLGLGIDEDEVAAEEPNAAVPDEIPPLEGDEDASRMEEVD
# UniProt P0DMV8: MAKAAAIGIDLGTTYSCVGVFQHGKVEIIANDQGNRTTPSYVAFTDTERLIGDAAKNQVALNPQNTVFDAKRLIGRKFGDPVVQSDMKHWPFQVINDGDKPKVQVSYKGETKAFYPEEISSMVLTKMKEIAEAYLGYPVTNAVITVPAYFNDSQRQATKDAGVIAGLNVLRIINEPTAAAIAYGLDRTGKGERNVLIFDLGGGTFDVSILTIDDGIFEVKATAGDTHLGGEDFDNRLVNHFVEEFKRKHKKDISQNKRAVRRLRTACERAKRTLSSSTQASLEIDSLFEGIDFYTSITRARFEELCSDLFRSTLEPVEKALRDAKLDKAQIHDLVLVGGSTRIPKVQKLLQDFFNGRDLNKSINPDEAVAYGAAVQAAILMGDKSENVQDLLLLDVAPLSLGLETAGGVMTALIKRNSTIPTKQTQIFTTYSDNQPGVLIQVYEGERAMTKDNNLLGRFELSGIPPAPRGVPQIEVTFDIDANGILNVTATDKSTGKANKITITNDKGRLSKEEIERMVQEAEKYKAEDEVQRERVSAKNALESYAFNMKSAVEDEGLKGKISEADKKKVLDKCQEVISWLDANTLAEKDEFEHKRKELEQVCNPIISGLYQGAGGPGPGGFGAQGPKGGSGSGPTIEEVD
# Results are given in words; binding and its absence hold for the method and conditions named. For part of these data: In cells and extracts the contact can be indirect. Some entries that bind do so weakly or less than the wild type. For part of these data: Sequences can lack the tags named with a protein.
# T1: GST-RLIIT (GST protein that carried only the five residues 596RLIIT600 of SERT) (human)
# T1 sequence: RLIIT
# B1: p23/HSP90 co-chaperone (endogenous, HEK293) (protein, UniProt Q15185 1-160)
# chain: MQPASAKWYDRRDYVFIEFCVEDSKDVNVNFEKSKLTFSCLGGSDNFKHLNEIDLFHCIDPNDSKHKRTDRSILCCLRKGESGQSWPRLTKERAKLNWLSVDFNNWKDWEDDSDEDMSNFDRFSEMMNNMGGDEDVDLPEVDGADDDSQDSDDEKMPDLE
# Key:
# [1] = target: YFP-tagged SERT-P601A/G602A (human) (UniProt P31645); test: co-IP; detergent lysates of HEK293 cells stably expressing YFP-tagged SERT or mutants, anti-GFP antibody and protein A-Sepharose, blots for HSPs and co-chaperones; also after 24 h noribogaine (10 μM), pifithrin-μ (5 μM), 17-DMAG (2 μM) or combinations
# [2] = target: YFP-tagged SERT-R607A/I608A (human) (UniProt P31645); test: as above
# [3] = target: YFP-tagged SERT-F604Q (human) (UniProt P31645); test: as above
# [4] = target: T1, GST-RLIIT (GST protein that carried only the five residues 596RLIIT600 of SERT) (human); test: pull-down; 10 μg GST fusion protein on glutathione-Sepharose, HEK293 cell lysate (0.15 ml, ~2 x 10^6 cells/sample; 1% Nonidet P-40 lysis buffer), 60 min at room temperature; immunoblot for HSP70-1A; only the target purified
# [5] = target: T1, GST-RLIIT (GST protein that carried only the five residues 596RLIIT600 of SERT) (human); test: pull-down; 10 μg GST fusion protein on glutathione-Sepharose, 2 μg recombinant HSP70 in 0.15 ml TBST, 60 min at room temperature; immunoblot for HSP70-1A; both purified
molecule,measurement,setting,value
"C terminus of HSP70-interacting protein (CHIP), E3-ligase, endogenous, HEK293 (from UniProt Q9UNE7 1-303)",binding,[1],binds
same,binding,[2],binds
"HSC70 (endogenous, HEK293) (from UniProt P11142 1-646)",binding,[1],binds
"HSC70-HSP90-organizing protein (HOP), endogenous, HEK293 (from UniProt P31948 1-543)",binding,[1],binds
same,binding,[2],binds
"HSP90β (endogenous, HEK293) (from UniProt P08238 1-724)",binding,[1],binds
same,binding,[3],binds
same,binding,[2],binds
endogenous HSP70-1A of HEK293 cells (from UniProt P0DMV8 1-641),binding,[4],binds
recombinant purified protein HSP70-1A (from UniProt P0DMV8 1-641),binding,[5],binds
B1,binding,[1],binds
same,binding,[2],binds
